Reference: the supplement of paper PMC12889115
Some of the results follow. Values are raw readings; no control value is given beside them.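 Primary screen: polymyxin B was added at a level permeabilizing Salmonella outer membranes while sparing inner membranes. DMSO wells, both with and without polymyxin B, established maximum growth. Plate-to-plate variation meant each plate was ranked on its own, and the lowest-OD600 compounds were selected as hits.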

Tested on: Salmonella enterica serovar Typhimurium SL1344
Experiment: bacterial growth OD600 after 18 h with compound and polymyxin B; higher = more bacterial growth (less inhibition)
Settings: 50 µM, Mueller-Hinton broth

SMILES	bacterial growth OD600 (polymyxin B 0.75 µg/mL)	bacterial growth OD600 (polymyxin B 1 µg/mL)
O=C(c1ccccc1)N1CCOC(CCc2ccccc2)C1 (centres undefined)	0.775	
CC(=O)N1CCCN(C(=O)c2csc3nc(-c4cc(C)ccc4C)cn23)CC1	0.856	
CCN(CC)C(=O)C1CCC(=O)N(CCc2cccc(F)c2)C1 (centres undefined)		0.929
CCN(CC)CCNC(=O)c1cc(COc2ccccc2OC)on1		0.907
O=C1N(Cc2ccc(F)cc2)CCCC1(O)CN1CCC(CO)CC1 (centres undefined)		1.06
Cc1ccccc1C(NC1CCN(c2ccc(NC(=O)c3ccccc3F)cc2)CC1)c1ccncc1 (centres undefined)	0.003	
Fc1ccc(-n2cccn2)c(CNCc2cccnc2N2CCOCC2)c1		0.832
O=C1CCN(c2ccc(-c3nc(COc4ccccc4)no3)cn2)CCN1		0.841
COC(=O)[C@@H]1CCCN1C(=O)Cc1ccc(N2CCC(NCc3ccsc3)CC2)cc1	0.866	

Reprinted from the entries so far, 2 compounds:
SMILES	bacterial growth OD600 (polymyxin B 0.75 µg/mL)	bacterial growth OD600 (polymyxin B 1 µg/mL)
O=C(c1ccccc1)N1CCOC(CCc2ccccc2)C1 (centres undefined)	0.775	
CC(=O)N1CCCN(C(=O)c2csc3nc(-c4cc(C)ccc4C)cn23)CC1	0.856	
